At least one read-out could not be matched to a standard name with certainty.
Columns and labels:
[1] = RP-HPLC for BA and MP recovery (preservative concentration); type: physicochemical; conditions: Study 2, diluted DART-A DP formulation in cassette 25° C., 100 rpm, 5000 ng/mL
Protocol: Preservative recovery was measured using Reverse Phase (RP) HPLC analysis. The RP-HPLC configuration included a photodiode array (PDA) detector (λBA=254 nm, λMP=340 nm), a mobile phase composition of 40% acetonitrile, 0.1% formic acid and a Zorbax® 5 μm Eclipse-XDB-C18 80 Å liquid chromatography column. Samples were diluted ten-fold. The column temperature was set to 40±5° C. 50 μL of solution was injected for each 10-minute run.

[2] = target: T1, soluble recombinant human IL-3 receptor alpha (rhIL3Rα) (Homo sapiens, UniProt P26951); experiment: ELISA (rhIL3Rα) DART-A quantitation assay (concentration, protein recovery); conditions: saline IV bag, 25 ± 2° C., T0
T1 construct: soluble recombinant human IL-3 receptor alpha (rhIL3Rα)
T1 sequence (P26951 19-305 limits assumed): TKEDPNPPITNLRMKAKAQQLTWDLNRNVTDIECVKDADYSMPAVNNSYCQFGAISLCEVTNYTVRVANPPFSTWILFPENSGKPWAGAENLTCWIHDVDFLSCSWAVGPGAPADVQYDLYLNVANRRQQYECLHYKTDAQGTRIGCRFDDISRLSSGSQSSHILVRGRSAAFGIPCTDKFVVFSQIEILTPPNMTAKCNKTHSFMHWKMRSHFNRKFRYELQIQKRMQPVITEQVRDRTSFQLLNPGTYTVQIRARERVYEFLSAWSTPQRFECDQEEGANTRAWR
Protocol: In brief, the assay plate was coated with soluble recombinant human IL-3 receptor alpha (rhIL3Rα) overnight. […] After addition of MSD Read Buffer, the plate was inserted into the Sector Imager 2400 Plate Reader. When a voltage was applied to the plate electrodes, the bound Sulfo-TAG label produces an ECL signal, which was captured by the plate reader. A quantitative measure of the ECL signal emitted by each well was recorded, and the ECL counts emitted by the standard calibrators were used to generate a standard curve using a 4-parameter logistic (4PL) fit.

Compound | Benzyl Alcohol Recovery ([1]; T = 24 hours) [%] | Benzyl Alcohol Recovery ([1]; T = 48 hours) [%] | Benzyl Alcohol Recovery ([1]; T = 72 hours) [%] | DART-A % Recovery, ELISA [2]
OCc1ccccc1 [Benzyl Alcohol, benzyl alcohol] | 90.7 | 88.4 | 87.2 | 
polysorbate 80 [PS80] |  |  |  | above 91%

Reference: patent publication US20220323583A1, “Pharmaceutical Formulations of Bi-Specific Diabodies and Use of the Same” (MacroGenics, Inc., priority 2019, published 2022)
